In PubChem BioAssay AID624297 (National Center for Advancing Translational Sciences (NCATS), 2012):
In all, about 340,000 compounds went through this assay and about 6,200 (1.8%) were called active. Inconclusive means that the source gave no clear call. Such entries were picked first, then a sample of the others. Calls follow the shape of the dose curve; as a rule, active = well fitted activation curve with a large enough effect; inconclusive = small, poorly fitted or top-dose-only effect; inactive = no such curve, though single readings can be large or run the other way. Where the call is inconclusive, the potency comes from a doubtful curve fit.

Experiment: A quantitative high throughput screen for small molecules that induce DNA re-replication in SW480 colon adenocarcinoma cells. Also: nearly all actives have a fitted effect of over 55% in size.
Conditions: Hoechst DNA content imaging, 48 h; series mostly up to 46.1 µM
Outline: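 Hoechst fluorescence of nuclei (405 nm excitation, 500-530 nm emission) measured by plate-scanning imager after 48 hr compound exposure at 37 C; re-replication scored as increased number of nuclei with elevated intensity.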
Potency is read from the fitted curve at half-maximal effect.

Question: With `Cc1sc2nc(SCC(=O)NCc3ccco3)n(C)c(=O)c2c1C` as the compound, how does the Potency read?
Answer: inactive

Question: With `Cc1ccc(C(=O)N2CCN(c3ccccc3)CC2)cc1S(=O)(=O)N1CCCC1` as the compound, how does the Potency read?
Answer: inconclusive: 0.259 µM [activator, full curve, poor fit]

Question: For `CCCN(CC(=O)Nc1cccc(S(N)(=O)=O)c1)CC(=O)Nc1ccc(F)c(F)c1F`, which Potency is on record?
Answer: inactive

Question: Which Potency does the source give for `Cc1ccc(NC(=O)c2ccc(C(=O)c3ccccc3)cc2)nc1` here?
Answer: inconclusive: 29.1 µM [activator, partial curve, poor fit]

Question: For `COC(=O)c1c(-c2ccccc2OC)sc2ccccc12`, which Potency is on record?
Answer: inconclusive: 16.4 µM [activator, single point]

Question: With `CCN(c1ccc(NC(=O)COC(=O)c2ccc([N+](=O)[O-])o2)cc1)C(C)C` as the compound, how does the Potency read?
Answer: inconclusive: 29.1 µM [activator, partial curve, poor fit]

Question: Which Potency does the source give for `Cc1nc2nc(SCC(=O)NCCCN3CCCC(C)C3)nn2c(C)c1Cc1ccccc1Cl` (stereo unspecified) here?
Answer: inactive

Question: For `COc1cccc(C2C3=C(N=c4s/c(=C\c5cccc(O)c5)c(=O)n42)c2ccccc2CC3)c1OC` (stereo unspecified), which Potency is on record?
Answer: inconclusive: 29.1 µM [activator, single point]

Question: Which Potency does the source give for `Nc1ccc(NC(=O)c2cccs2)c(Cl)c1` here?
Answer: inconclusive: 25.9 µM [activator, single point]

Question: For `Cc1nnc(Sc2nc3ccccc3o2)c2ccccc12`, which Potency is on record?
Answer: inconclusive: 29.1 µM [activator, single point]

Question: Which Potency does the source give for `CC(C)(C)n1nc2c(c1NC(=O)COc1ccc(F)cc1)CS(=O)(=O)C2` here?
Answer: inactive

Question: Which Potency does the source give for `COc1cccc(Nc2c3c(nc4c(-c5ccccc5)c(C)nn24)CCC3)c1` here?
Answer: inconclusive: 14.6 µM [activator, single point]

Question: Which Potency does the source give for `CSc1ccc(C(=O)C2CCCN(C(=O)c3cccnc3SC)C2)cc1` (stereo unspecified) here?
Answer: inconclusive: 16.4 µM [activator, single point]

Question: For `CCCCNc1c(-c2ccc(SC(C)CC)c(OC)c2)nc2ccc(C)cn12` (stereo unspecified), which Potency is on record?
Answer: inconclusive: 20.6 µM [activator, single point]

Question: For `COc1ccc(N2CCN(S(=O)(=O)c3cc(Br)cnc3N)CC2)cc1`, which Potency is on record?
Answer: inconclusive: 35.5 µM [activator, single point]

Question: For `COc1cccc2cc(C(=O)NCc3ccccc3Cl)c(=O)oc12`, which Potency is on record?
Answer: inactive

Question: For `COC(=O)c1cc(OC)c(OC)cc1NC(=O)C1CCC(=O)N1S(=O)(=O)c1ccc(C)cc1` (stereo unspecified), which Potency is on record?
Answer: inconclusive: 29.1 µM [activator, single point]

Question: With `Cc1noc(/C=C/c2ccco2)c1S(=O)(=O)N1CCC(C(=O)N2CCc3ccccc3C2)CC1` as the compound, how does the Potency read?
Answer: inconclusive: 23.1 µM [activator, partial curve, poor fit]

Question: Which Potency does the source give for `O=C(Cn1cc(C(F)(F)F)ccc1=O)N/N=C/c1ccc(Cl)cc1` here?
Answer: inconclusive: 32.6 µM [activator, single point]

Question: Which Potency does the source give for `N=C1C(=O)NC(=O)C1c1ccccc1` (stereo unspecified) here?
Answer: inactive

Question: Which Potency does the source give for `CCOC(=O)C1CCN(Cc2ccc(N(C)C)cc2)CC1` here?
Answer: inactive

Question: Which Potency does the source give for `Cc1ccc(CN2CCN(Cc3cccn3-c3ccc(Cl)cn3)CC2CCO)o1` (stereo unspecified) here?
Answer: inactive

Question: For `CC(=O)c1ccc(S(=O)(=O)N2CCN(C(=O)CSC(=S)N3CCCC3)CC2)cc1`, which Potency is on record?
Answer: inactive

Question: With `COc1cc(C(=O)Nc2ccc(S(=O)(=O)Nc3cnc4ccccc4n3)cc2)cc(OC)c1OC` as the compound, how does the Potency read?
Answer: inconclusive: 2.31 µM [activator, full curve, poor fit]

Question: With `COC(=O)c1cc(Oc2ccc(S(=O)(=O)N3CCOCC3)cc2[N+](=O)[O-])cc(C(=O)OC)c1` as the compound, how does the Potency read?
Answer: inconclusive: 16.4 µM [activator, partial curve, poor fit]

Question: With `S=C(NCc1ccccn1)Nc1ccccc1` as the compound, how does the Potency read?
Answer: inconclusive: 16.4 µM [activator, single point]

Question: Which Potency does the source give for `CN(C)CCNc1ccc2ncn3c4ccc(O)cc4c(=O)c1c23` here?
Answer: inconclusive: 8.2 µM [activator, partial curve, poor fit]

Question: With `COc1ccc(C2C([N+](=O)[O-])=C(C)N(C)C(=O)N2C)cc1OC` (stereo unspecified) as the compound, how does the Potency read?
Answer: inconclusive: 18.4 µM [activator, single point]

Question: For `CC(=O)/C(=N/Nc1ccccc1)Sc1nnc(CCc2ccccc2)n1-c1ccccc1`, which Potency is on record?
Answer: inconclusive: 25.9 µM [activator, single point]

Question: Which Potency does the source give for `CCn1nnnc1SCC(=O)Nc1nc2ccccc2s1` here?
Answer: inconclusive: 2.31 µM [activator, full curve, poor fit]

Question: Which Potency does the source give for `CCN(CC)C(=O)c1sc2nc(-c3cccs3)cc(-c3ccc(Cl)cc3)c2c1N` here?
Answer: active: 13 µM

Question: For `CN1C/C(=C/c2ccccc2[N+](=O)[O-])C(=O)/C(=C\c2ccccc2[N+](=O)[O-])C1`, which Potency is on record?
Answer: active: 1.16 µM

Question: Which Potency does the source give for `COc1cc(OC)cc(-c2nnc(NC(=O)CCS(=O)(=O)c3ccc(C)cc3)o2)c1` here?
Answer: inconclusive: 14.6 µM [activator, partial curve, poor fit]

Question: For `CN(Cc1ccccc1)C(=O)c1ncn(Cc2ccccc2)c1C(=O)N(C)Cc1ccccc1`, which Potency is on record?
Answer: inactive

Question: With `CCOCCn1c2ccccc2c2nc3ccccc3nc21` as the compound, how does the Potency read?
Answer: inactive

Question: Which Potency does the source give for `COC(=O)C1=C(C)NC(=O)C1(NC(=O)c1ccncc1)C(F)(F)F` (stereo unspecified) here?
Answer: inconclusive: 18.4 µM [activator, partial curve, poor fit]

Question: For `Cc1cc(OCC(=O)NCC(C)C)cc(C)c1Br`, which Potency is on record?
Answer: inactive

Question: With `O=C(CCN1C(=O)C2CCCCC2C1=O)Nc1nc(-c2ccc(F)c(F)c2)cs1` (stereo unspecified) as the compound, how does the Potency read?
Answer: inactive

Question: For `C=CCNC(=S)N/N=C/c1ccc(N(CC)Cc2ccccc2)cc1`, which Potency is on record?
Answer: active: 18.4 µM

Question: Which Potency does the source give for `C=CCn1c(SCC(=O)Nc2ccccc2F)nc2ccccc2c1=O` here?
Answer: inconclusive: 0.411 µM [activator, full curve, poor fit]

Question: Which Potency does the source give for `CCCC(=O)NC(c1ccc(Cl)cc1)c1ccc2cccnc2c1O` (stereo unspecified) here?
Answer: active: 2.91 µM

Question: Which Potency does the source give for `COc1ccccc1CNCC(=O)Nc1cc(S(=O)(=O)N2CCCCCC2)ccc1Cl` here?
Answer: inconclusive: 16.4 µM [activator, single point]

Question: With `Cc1cccc(Nc2nc(-c3ccc(F)c(C)c3)cs2)n1` as the compound, how does the Potency read?
Answer: inconclusive: 23.1 µM [activator, single point]

Question: With `CCOc1ccc2[nH]c3c(N4CCC5(CC4)OCCO5)ncnc3c2c1` as the compound, how does the Potency read?
Answer: inconclusive: 18.4 µM [activator, single point]

Question: With `N/C(=N\N=C\c1ccc2c(c1)OCO2)SC1CC(=O)N(c2ccc(C(=O)O)cc2)C1=O` (stereo unspecified) as the compound, how does the Potency read?
Answer: inactive

Question: With `Cc1[nH]c2ccccc2c1/C=C/c1nc2ccccc2c(=O)n1-c1cccc([N+](=O)[O-])c1` as the compound, how does the Potency read?
Answer: inconclusive: 20.6 µM [activator, single point]

Question: For `Cc1sc2ncnc(N3CCC(C(=O)Nc4ccc(Cl)cc4Cl)CC3)c2c1C`, which Potency is on record?
Answer: inconclusive: 6.51 µM [activator, single point]

Question: With `Cc1cc(S(=O)(=O)Nc2ccc(C(=O)NCC3(N(C)C)CCCCC3)cc2)ccc1F` as the compound, how does the Potency read?
Answer: inconclusive: 16.4 µM [activator, single point]

Question: With `COc1ccc(C(CNC(=O)c2ccc(-c3nc4ccccc4s3)o2)N2CCCC2)cc1` (stereo unspecified) as the compound, how does the Potency read?
Answer: inconclusive: 23.1 µM [activator, partial curve, poor fit]

Question: For `Fc1ccc(N2CCN(C(c3cccs3)c3nnnn3C3CCCC3)CC2)cc1` (stereo unspecified), which Potency is on record?
Answer: inconclusive: 0.13 µM [activator, full curve, poor fit]

Question: Which Potency does the source give for `COc1ccc(C(=O)NCc2nnc(SCC(=O)Nc3ccccc3F)o2)cc1` here?
Answer: inconclusive: 29.1 µM [activator, single point]

Question: With `CCN(CC)C(=O)CSc1nnc(-c2ccccc2)o1` as the compound, how does the Potency read?
Answer: inconclusive: 6.51 µM [activator, partial curve]

Question: With `CCN(C(=O)CN1CCN(Cc2ccccc2)CC1)c1c(N)n(Cc2ccccc2)c(=O)[nH]c1=O` as the compound, how does the Potency read?
Answer: inconclusive: 0.731 µM [activator, partial curve, poor fit]

Question: For `CCOc1ccc(NS(=O)(=O)c2cc(OCC(N)=O)c(C)cc2Cl)cc1`, which Potency is on record?
Answer: inconclusive: 3.26 µM [activator, single point]

Question: With `Cc1ccc(S(=O)(=O)Nc2cccc(C(=O)NCC(c3ccco3)N3CCCC3)c2)cc1F` (stereo unspecified) as the compound, how does the Potency read?
Answer: active: 23.1 µM

Question: Which Potency does the source give for `CC(=O)c1ccc2c(c1)N(CCCN1CCN(CCO)CC1)c1ccccc1S2` here?
Answer: inconclusive: 26.6 µM [activator, single point]

Question: Which Potency does the source give for `Cn1c2ccccc2c(=O)c2c(=O)n(Cc3ccco3)c(-c3ccc(F)cc3)nc21` here?
Answer: inconclusive: 23.1 µM [activator, single point]

Question: Which Potency does the source give for `Cc1cc(C)cc(NC(=O)c2cc(C)n(Cc3cccs3)c2C)c1` here?
Answer: inconclusive: 16.4 µM [activator, single point]

Question: With `COC(=O)/C=c1/s/c(=C(/C#N)C(=O)N2CCCCC2)n(-c2ccccc2)c1=O` as the compound, how does the Potency read?
Answer: active: 0.326 µM

Question: Which Potency does the source give for `O=C(CCc1nnc(CCCCc2ccccc2)o1)NCCCc1cccnc1` here?
Answer: inactive

Question: With `COc1ccc(C2c3cc4c(cc3OC(N3CCOCC3)C2C)OCO4)c(OC)c1` (stereo unspecified) as the compound, how does the Potency read?
Answer: inconclusive: 2.91 µM [activator, full curve, poor fit]

Question: For `CCn1c(SCC(=O)Nc2ccc3c(c2)OCCO3)nnc1-c1c[nH]c2ccccc12`, which Potency is on record?
Answer: inactive

Question: With `CCc1ccc(NC(=O)c2cc(C)nn2-c2ccccc2)cc1` as the compound, how does the Potency read?
Answer: inconclusive: 32.6 µM [activator, partial curve, poor fit]

Question: Which Potency does the source give for `CC(=O)n1cc(/C=N/NC(=O)c2sc(C)nc2C)c2ccccc21` here?
Answer: inconclusive: 18.4 µM [activator, single point]

Question: Which Potency does the source give for `Cc1ccc(Nc2nc(-c3c(C)nc4ccccn34)cs2)cc1` here?
Answer: inconclusive: 0.0046 µM [activator, full curve, poor fit]

Question: Which Potency does the source give for `CCCOc1ccc(CN(CCC#N)C(=S)NC(=O)c2ccccc2)cc1` here?
Answer: inconclusive: 25.9 µM [activator, single point]
